Among the data in the supplement of paper PMC12819154, “High-throughput peptide-centric local stability assay extends protein–ligand identification to membrane proteins, tissues and bacteria” (Nature Structural & Molecular Biology, 2025) are log2 fold change values, retold here.

Amino acid sequences for entries named in this document (tags omitted). A change or cut given only in a name is not applied to a line headed by its entry.
UniProt Q8WYQ9: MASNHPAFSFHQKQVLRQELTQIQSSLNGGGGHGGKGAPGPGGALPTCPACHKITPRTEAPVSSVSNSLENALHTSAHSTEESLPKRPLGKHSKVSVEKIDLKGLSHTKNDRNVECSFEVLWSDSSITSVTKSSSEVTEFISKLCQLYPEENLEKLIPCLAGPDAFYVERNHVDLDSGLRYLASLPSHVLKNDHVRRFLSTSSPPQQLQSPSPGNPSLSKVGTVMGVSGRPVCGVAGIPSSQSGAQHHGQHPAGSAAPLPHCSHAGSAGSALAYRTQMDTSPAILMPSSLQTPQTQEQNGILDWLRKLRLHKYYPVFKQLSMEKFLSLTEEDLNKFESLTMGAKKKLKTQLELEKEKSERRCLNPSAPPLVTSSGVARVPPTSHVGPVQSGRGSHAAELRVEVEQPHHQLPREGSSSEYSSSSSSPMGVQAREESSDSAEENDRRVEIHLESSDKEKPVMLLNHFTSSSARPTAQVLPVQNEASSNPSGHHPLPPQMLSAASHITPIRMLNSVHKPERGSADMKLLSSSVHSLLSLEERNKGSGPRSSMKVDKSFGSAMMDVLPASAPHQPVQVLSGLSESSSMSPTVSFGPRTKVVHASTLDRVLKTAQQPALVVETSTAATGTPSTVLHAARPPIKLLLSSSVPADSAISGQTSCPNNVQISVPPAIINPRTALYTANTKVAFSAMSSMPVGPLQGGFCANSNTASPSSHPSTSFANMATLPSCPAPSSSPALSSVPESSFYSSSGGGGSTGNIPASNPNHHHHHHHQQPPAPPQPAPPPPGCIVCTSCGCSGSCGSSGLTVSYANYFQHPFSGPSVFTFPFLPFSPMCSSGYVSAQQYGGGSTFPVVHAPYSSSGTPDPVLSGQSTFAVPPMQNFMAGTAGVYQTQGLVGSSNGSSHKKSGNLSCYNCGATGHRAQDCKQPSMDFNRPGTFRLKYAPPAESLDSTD
UniProt Q92576, whole entry: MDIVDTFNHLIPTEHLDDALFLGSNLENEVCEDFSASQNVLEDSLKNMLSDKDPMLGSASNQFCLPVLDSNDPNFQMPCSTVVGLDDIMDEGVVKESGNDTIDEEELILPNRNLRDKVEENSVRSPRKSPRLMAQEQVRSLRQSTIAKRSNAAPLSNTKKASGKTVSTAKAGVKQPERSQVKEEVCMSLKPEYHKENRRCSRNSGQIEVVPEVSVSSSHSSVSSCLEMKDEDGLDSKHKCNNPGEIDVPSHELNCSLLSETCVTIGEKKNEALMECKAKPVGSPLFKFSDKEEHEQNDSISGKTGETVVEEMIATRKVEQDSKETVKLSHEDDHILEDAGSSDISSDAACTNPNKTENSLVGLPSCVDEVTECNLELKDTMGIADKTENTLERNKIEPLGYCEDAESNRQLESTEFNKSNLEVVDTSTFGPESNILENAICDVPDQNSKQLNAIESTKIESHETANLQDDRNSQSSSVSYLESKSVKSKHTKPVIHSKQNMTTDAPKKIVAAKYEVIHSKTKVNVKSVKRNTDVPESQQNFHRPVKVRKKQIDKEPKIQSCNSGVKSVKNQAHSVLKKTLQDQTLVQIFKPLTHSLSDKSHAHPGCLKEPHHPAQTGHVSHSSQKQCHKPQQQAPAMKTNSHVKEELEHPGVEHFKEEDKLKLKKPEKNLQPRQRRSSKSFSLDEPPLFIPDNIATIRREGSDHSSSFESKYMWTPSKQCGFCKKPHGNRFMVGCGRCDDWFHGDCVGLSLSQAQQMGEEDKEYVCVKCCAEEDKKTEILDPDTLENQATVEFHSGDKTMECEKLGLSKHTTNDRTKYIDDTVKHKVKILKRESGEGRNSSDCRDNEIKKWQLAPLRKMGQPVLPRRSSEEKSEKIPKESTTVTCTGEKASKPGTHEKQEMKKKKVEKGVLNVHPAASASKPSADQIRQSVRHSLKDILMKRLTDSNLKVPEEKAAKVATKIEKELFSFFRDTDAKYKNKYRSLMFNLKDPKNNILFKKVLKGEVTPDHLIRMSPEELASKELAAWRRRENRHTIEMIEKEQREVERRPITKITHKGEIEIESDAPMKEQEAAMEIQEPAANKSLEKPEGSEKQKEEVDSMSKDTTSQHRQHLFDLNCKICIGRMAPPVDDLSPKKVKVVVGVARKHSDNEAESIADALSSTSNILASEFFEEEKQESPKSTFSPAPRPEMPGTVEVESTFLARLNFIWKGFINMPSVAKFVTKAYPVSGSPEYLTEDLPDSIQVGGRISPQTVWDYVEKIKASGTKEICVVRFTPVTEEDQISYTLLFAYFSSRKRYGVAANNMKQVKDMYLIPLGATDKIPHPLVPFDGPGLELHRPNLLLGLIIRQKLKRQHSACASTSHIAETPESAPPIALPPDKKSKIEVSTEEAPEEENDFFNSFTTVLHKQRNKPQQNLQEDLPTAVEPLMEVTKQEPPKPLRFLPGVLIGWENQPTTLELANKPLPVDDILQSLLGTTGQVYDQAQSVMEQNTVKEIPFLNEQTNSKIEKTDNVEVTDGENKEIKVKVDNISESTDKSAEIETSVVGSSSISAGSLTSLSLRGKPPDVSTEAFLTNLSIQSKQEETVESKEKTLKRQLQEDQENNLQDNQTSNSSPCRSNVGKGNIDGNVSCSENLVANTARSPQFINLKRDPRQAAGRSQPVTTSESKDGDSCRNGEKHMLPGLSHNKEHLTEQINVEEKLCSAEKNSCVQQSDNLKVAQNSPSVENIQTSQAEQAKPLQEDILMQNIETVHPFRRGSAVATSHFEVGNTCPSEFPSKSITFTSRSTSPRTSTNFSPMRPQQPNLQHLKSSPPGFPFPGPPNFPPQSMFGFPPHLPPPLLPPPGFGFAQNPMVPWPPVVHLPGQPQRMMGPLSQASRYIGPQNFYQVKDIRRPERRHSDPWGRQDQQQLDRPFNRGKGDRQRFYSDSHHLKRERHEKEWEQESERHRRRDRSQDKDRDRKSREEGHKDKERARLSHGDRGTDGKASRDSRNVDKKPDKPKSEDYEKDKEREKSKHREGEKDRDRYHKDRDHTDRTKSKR
UniProt Q8TBM8: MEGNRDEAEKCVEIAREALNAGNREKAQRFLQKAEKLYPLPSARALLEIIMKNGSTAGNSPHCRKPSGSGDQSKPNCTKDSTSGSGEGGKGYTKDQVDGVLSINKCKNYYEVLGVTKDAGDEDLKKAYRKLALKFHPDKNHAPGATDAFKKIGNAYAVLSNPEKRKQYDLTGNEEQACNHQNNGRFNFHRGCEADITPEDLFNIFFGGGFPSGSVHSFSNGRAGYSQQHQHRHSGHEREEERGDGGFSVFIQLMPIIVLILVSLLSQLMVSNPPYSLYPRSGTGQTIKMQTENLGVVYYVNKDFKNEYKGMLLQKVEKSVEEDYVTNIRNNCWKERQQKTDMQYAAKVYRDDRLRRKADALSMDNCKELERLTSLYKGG
UniProt Q8WXA3: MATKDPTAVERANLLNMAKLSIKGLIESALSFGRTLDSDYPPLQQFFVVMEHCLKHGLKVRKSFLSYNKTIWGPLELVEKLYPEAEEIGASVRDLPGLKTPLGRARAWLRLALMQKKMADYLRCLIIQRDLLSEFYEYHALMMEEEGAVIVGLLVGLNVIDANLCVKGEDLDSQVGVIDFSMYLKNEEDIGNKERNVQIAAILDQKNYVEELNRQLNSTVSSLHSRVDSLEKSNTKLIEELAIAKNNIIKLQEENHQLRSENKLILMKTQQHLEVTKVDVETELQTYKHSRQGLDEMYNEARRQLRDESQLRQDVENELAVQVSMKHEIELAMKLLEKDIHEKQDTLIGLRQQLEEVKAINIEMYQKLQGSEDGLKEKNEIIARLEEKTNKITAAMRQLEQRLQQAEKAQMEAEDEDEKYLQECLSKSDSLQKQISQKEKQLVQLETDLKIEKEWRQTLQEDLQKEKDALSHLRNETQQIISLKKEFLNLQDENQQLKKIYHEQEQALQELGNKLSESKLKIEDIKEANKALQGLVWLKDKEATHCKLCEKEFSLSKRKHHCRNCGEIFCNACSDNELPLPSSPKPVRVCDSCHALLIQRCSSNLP
UniProt Q8WUB8: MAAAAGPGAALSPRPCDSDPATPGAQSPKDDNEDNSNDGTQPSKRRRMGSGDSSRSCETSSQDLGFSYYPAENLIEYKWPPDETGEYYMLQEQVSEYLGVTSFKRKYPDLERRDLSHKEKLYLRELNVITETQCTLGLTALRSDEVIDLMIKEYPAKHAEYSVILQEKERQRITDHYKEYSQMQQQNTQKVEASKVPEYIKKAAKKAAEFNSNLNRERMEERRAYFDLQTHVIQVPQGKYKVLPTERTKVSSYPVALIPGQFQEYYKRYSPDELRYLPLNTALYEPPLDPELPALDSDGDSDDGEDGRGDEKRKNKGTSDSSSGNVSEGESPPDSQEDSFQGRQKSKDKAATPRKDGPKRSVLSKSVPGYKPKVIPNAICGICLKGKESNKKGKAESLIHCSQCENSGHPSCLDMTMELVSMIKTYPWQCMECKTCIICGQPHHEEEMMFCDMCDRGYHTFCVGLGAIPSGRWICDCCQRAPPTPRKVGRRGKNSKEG
UniProt Q8WZ60: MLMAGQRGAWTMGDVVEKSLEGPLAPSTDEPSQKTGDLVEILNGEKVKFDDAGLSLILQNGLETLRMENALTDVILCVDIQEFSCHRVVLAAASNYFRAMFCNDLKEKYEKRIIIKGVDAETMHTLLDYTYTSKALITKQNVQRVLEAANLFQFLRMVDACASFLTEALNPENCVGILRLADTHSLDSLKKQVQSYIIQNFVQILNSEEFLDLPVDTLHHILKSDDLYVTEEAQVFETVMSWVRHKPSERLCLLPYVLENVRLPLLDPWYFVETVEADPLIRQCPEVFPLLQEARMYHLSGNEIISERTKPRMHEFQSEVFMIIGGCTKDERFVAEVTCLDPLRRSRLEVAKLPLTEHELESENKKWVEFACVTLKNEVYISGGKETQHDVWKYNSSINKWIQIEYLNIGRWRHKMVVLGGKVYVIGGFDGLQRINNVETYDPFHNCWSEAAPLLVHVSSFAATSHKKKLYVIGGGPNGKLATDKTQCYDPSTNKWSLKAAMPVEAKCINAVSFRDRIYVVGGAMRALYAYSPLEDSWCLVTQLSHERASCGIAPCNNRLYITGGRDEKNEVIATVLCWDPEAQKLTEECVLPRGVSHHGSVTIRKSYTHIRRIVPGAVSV
UniProt Q8WXW3: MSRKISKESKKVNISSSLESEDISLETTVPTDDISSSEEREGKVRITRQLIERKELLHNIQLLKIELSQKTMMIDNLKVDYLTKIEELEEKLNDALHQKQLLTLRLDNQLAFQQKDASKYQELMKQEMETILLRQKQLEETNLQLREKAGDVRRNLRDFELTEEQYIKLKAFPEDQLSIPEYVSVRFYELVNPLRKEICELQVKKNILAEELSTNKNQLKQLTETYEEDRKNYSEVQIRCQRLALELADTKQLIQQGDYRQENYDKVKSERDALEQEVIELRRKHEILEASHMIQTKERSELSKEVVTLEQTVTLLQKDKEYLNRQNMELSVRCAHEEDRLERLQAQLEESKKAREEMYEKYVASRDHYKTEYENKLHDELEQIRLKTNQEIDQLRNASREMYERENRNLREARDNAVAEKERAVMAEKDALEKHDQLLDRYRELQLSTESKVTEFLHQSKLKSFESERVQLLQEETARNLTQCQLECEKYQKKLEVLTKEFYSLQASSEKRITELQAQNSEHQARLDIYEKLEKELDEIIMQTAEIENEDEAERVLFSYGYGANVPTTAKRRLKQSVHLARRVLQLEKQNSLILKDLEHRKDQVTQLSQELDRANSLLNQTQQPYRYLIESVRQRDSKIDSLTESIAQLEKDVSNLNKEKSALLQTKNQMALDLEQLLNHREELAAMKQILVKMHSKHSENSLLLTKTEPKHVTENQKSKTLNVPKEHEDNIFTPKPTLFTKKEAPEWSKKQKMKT
UniProt Q8TAA3: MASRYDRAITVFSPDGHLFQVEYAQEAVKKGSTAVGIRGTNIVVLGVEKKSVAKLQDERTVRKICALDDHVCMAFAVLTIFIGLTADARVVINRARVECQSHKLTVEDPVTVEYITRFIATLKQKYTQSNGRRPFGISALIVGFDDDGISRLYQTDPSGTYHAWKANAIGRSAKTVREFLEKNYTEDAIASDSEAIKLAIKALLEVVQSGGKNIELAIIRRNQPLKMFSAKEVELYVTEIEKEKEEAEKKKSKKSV
UniProt Q92564: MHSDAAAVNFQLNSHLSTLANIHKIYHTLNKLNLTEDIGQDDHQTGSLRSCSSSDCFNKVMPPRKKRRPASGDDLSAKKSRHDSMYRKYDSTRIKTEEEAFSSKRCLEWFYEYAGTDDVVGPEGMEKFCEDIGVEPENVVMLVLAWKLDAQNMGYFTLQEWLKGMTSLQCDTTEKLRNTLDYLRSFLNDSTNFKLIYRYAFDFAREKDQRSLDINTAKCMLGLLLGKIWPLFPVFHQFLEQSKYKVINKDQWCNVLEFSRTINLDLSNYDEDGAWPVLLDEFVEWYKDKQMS
UniProt Q8WVK2: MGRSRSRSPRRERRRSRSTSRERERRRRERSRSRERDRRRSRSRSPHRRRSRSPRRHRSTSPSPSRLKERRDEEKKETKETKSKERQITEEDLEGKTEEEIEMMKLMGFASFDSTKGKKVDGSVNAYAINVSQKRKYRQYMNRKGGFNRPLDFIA

The list shows a part of the results. Most values lie at the level of the controls, where differences are scatter.

Compound in the test: Cc1nc(Nc2ncc(C(=O)Nc3c(C)cccc3Cl)s2)cc(N2CCN(CCO)CC2)n1 [dasatinib]
The test is described as follows: log2 fold change of tryptic peptide abundance, ligand vs vehicle (limited proteolysis) (log2 ratio); higher = more trypsin-susceptible (destabilized). As to conditions: ligand concentration: 5 uM; sample: K562 cleared lysate.
Turning to “CEP192 (peptide sequence: GIVPDLNSECASKDVLVK, peptide start residue: 343) (UniProt Q8TEP8)”, the log2 fold change was 0.265.

As for “UniProt Q8WYQ9 (peptide sequence: LLSSSVHSLLSLEER, peptide start residue: 525)”, the log2 fold change worked out at 0.525. As for “GTSF1 (peptide sequence: CRKNHPDVASK, peptide start residue: 37) (UniProt Q8WW33)”, the log2 fold change stood at 0.368. The value for “PHF3 (peptide sequence: QDQQQLDRPFNR, peptide start residue: 1904) (UniProt Q92576)” was -0.281; that for “SCFD1 (peptide sequence: LIDLHTNVATAVLEHIK, peptide start residue: 398) (UniProt Q8WVM8)” was 0.411.

For the target “DCAF4 (peptide sequence: ADIPSVAFSSR, peptide start residue: 461) (UniProt Q8WV16)”, the log2 fold change was found to be 0.285.

Regarding “DNAJB14 (peptide sequence: NGSTAGNSPHCR, peptide start residue: 53) (UniProt Q8TBM8)”, the log2 fold change worked out at 0.224. With “UniProt Q8TC92 (peptide sequence: WQLDAYR, peptide start residue: 423)”, the log2 fold change was found to be 0.558.

“H1FX (peptide sequence: KKLEGGGER, peptide start residue: 119) (UniProt Q92522)”: the log2 fold change was -0.174. In the case of “LNX1 (peptide sequence: HGQLEENDRVLAINGHDLR, peptide start residue: 420) (UniProt Q8TBB1)”, the log2 fold change stood at 0.75. The result for “PHOSPHO2 (peptide sequence: GFWTEFMGR, peptide start residue: 42) (UniProt Q8TCD6)” reads -0.607; that for “UniProt Q8WXH5 (peptide sequence: PEGTFLLR, peptide start residue: 399)”, -0.0659; that for “RGP1 (peptide sequence: LMAATSCR, peptide start residue: 202) (UniProt Q92546)”, 0.415.

On to “CTNNBL1 (peptide sequence: KIEGEKHDMVR, peptide start residue: 458) (UniProt Q8WYA6)”, for which the log2 fold change turned out to be 0.237.

In the case of “UniProt Q8TD08 (peptide sequence: LCDFGLAR, peptide start residue: 153)”, the log2 fold change was determined as 0.0898. The value for “SMG7 (peptide sequence: SVMAQQANIDRR, peptide start residue: 882) (UniProt Q92540)” was -0.149; that for “RUFY2 (peptide sequence: QLNSTVSSLHSR, peptide start residue: 215) (UniProt Q8WXA3)” was 0.309; that for “SCARB1 (peptide sequence: IHLVDKWNGLSK, peptide start residue: 231) (UniProt Q8WTV0)” was -0.295.

As to “WDR20 (peptide sequence: SSVMDGAIASGVSK, peptide start residue: 447) (UniProt Q8TBZ3)”, the log2 fold change was 0.126.

As to “PHF10 (peptide sequence: SDEVIDLMIK, peptide start residue: 143) (UniProt Q8WUB8)”, the log2 fold change turned out to be 0.379.

On to “MIPOL1 (peptide sequence: ANMELQLQHAR, peptide start residue: 399) (UniProt Q8TD10)”, for which the log2 fold change was -1.03. The value for “UniProt Q8WZ60 (peptide sequence: LADTHSLDSLK, peptide start residue: 180)” was -0.338. The value for “GATAD1 (peptide sequence: SSPFPTVPTRPEK, peptide start residue: 234) (UniProt Q8WUU5)” was -0.208; that for “UniProt Q8WXK3 (peptide sequence: LLLSYGAK, peptide start residue: 103)” was 0.0964; that for “DCAKD (peptide sequence: QVILLHTELER, peptide start residue: 188) (UniProt Q8WVC6)” was -0.257. The value for “BAP1 (peptide sequence: FKIDDQR, peptide start residue: 660) (UniProt Q92560)” was 0.399. As for “RAPGEF6 (peptide sequence: RLPDQFSK, peptide start residue: 810) (UniProt Q8TEU7)”, the log2 fold change is -0.472. The result for “GEMIN5 (peptide sequence: EEKNEPLSLPELTKR, peptide start residue: 1423) (UniProt Q8TEQ6)” reads -0.211.

Regarding “PIBF1 (peptide sequence: QNMELSVR, peptide start residue: 326) (UniProt Q8WXW3)”, the log2 fold change worked out at 0.403. The value for “UniProt Q8WXA9 (peptide sequence: VREAQSFISAAIEPESGK, peptide start residue: 166)” was 0.119; that for “UniProt Q8WXB1 (peptide sequence: KVALEFLK, peptide start residue: 96)” was -0.187; that for “UniProt Q8TF61 (peptide sequence: EKEELEER, peptide start residue: 261)” was 0.636. The result for “EDEM1 (peptide sequence: YMFTTEGHIVSVDEHLR, peptide start residue: 575) (UniProt Q92611)” reads 0.409; that for “UniProt Q92599 (peptide sequence: RELEEETNAFNRR, peptide start residue: 389)”, 0.669. The result for “PSMA8 (peptide sequence: LYQTDPSGTYHAWK, peptide start residue: 144) (UniProt Q8TAA3)” reads 0.0212; that for “UniProt Q8TF32 (peptide sequence: YGVYPLKEASGCPGAER, peptide start residue: 6)”, -0.512. Turning to “DCUN1D4 (peptide sequence: SCSSSDCFNK, peptide start residue: 50) (UniProt Q92564)”, the log2 fold change was 0.179. The result for “SNRNP27 (peptide sequence: LMGFASFDSTK, peptide start residue: 106) (UniProt Q8WVK2)” reads 0.0786.
